From US9028816 come the findings set out here.

No constants are given. Whether binding was seen depends on the method and setting. Binding can be weak; no strength is given.

One assay deals with collagen type I. The assay can be described thus: ELISA: collagen type I coated at 25 µg/ml, purified VHH in twofold dilutions, detection as in Example 7 (Example 34) [collagen type I].
The target of another assay is collagen type III. Kind of assay: ELISA: collagen type III coated at 25 µg/ml, purified VHH in twofold dilutions, detection as in Example 7 (Example 34) [collagen type III]. A general note: ELISA stands for enzyme-linked immunosorbent assay.

B1: 3L-41 (VHH)
VHH: QVQLQDSGGGLVQAGGSLRLSCAASGRTFRRYAMGWYRQAPGKQRVLVAAITSNGRPSVADSVKGRFTISSDTAKNTVYLQMNSLKPEDTALYYCTLYNTSADYYNQSPSSWGQGTQVTVLS
Turning to B1, the binding entry in the assay with collagen type I and in the assay with collagen type III was “binds” throughout.

B2: 3P1-31 (VHH)
VHH: QVQLQESGGGLVQAGGSLRLSCAASGRTFRRYAMGWYRQAPGKQRELVAAITSGGRTSVADTVKGRFTISSDNAKNTVYLQMNSLKPEDAAVYYCTLYNSTTNYYNQSPSSWGQGTQVTVSS
With B2, the binding entry with collagen type I and in the assay with collagen type III was “binds” in each case.

B3: 3P2-31 (VHH)
VHH: QVQLQESGGGLVQAGDSLRLSCAASGRTFTMGWFRQAPGKERQFVAALTWTGGSPVYADSVKGRFTTWRVLDNNTVYLHMNSLKPEDTAVYHCAAARTYYGNISEYYDYWGQGTQVTVSS
For the molecule B3, the binding entry in the assay with collagen type I and with collagen type III was “binds” throughout.
